Among the data in patent US8877763B2, “Substituted pyridopyrimidine compounds and their use as FLT3 inhibitors” (Genosco, priority 2012, dated 2014) are IC50 values, retold here.

Molecules are shown by their SMILES.

In the assay the test system is MV4-11 cells expressing human FLT3-ITD. Put plainly: Cell viability assay: inhibition of FLT3-ITD-positive cells (ATPLite). The format is cell-based. To be noted: MV4-11, 72 h, 72 hour incubation. As for the experimental part:
Compounds of the invention were tested for cell viability effect on MV4-11 cells. For cell viability assay, MV4-11 cells expressing human FLT3-ITD were obtained from the American Type Culture Collection (ATCC, Manassas, Va.). This cell line was maintained with an Roswell Park Memorial Institute (RPMI) medium (HyClone™) containing 10 bovine calf serum (BCS; Hyclone™) supplemented iron. The MV4-11 cells were seeded at 2×10^4 cells in 96-well culture plates, and serially diluted compound was then added. After a 72 hour incubation period at 37° C., cell viability was measured using the ATPLite 1 step assay (Perkin-Elmer™) that is based on the quantification of ATP from viable cells. CellTiter Aqueous assay (Promega™) was also performed in parallel as an orthogonal assay. IC50 values were calculated using nonlinear regression and defined as the concentration needed for a 50 reduction in luminescence or absorbance treated versus untreated control cells (Prism™ Software).
A general note: ATP-based viability assays read luminescence as a measure of living cells.

For orientation: IC50 means the point on the concentration scale where inhibition reaches its midpoint. Turning to `CO[C@@H]1[C@H](N(C)C(=O)c2ccccc2)C[C@H]2O[C@]1(C)n1c3ccccc3c3c4c(c5c6ccccc6n2c5c31)C(=O)NC4` [PKC-412, Midostaurin, reference compound], the IC50 was found to be 3.2 nM.
